Source: PubChem BioAssay AID2685 (National Center for Advancing Translational Sciences (NCATS), 2010)
The other results are listed elsewhere or left out. These are further read-outs of the screen, such as a control signal, another cell line or another target. No call is given for them. Most of these compounds were active or inconclusive in the main read-out, so they are no random draw. The note in brackets gives the kind of curve behind each potency; many fits are weak. Where a SMILES comes first, the peptide text is derived from it. [ ]: non-standard residue; d: D form. ξ: configuration not given here. ξF = NC(Cc1ccccc1)C(=O)O

Assay: qHTS Assay for Lipid Storage Modulators in Drosophila S3 Cells;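 as to cell number change: cells counted by Cell Tracker Red CMTPX staining in the red channel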
Conditions: BODIPY lipid droplet fluorescence, 18-24 h; for cell number change: measured here: cell count max response, cells fed with added oleic acid
Procedure, shortened: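 Laser-scanning cytometry quantifies lipid droplet accumulation (500–530 nm total intensity; droplet/cell object ratio) in oleic acid-fed (400 uM added) Drosophila S3 cells treated with a concentration series. 20 uM Triacsin C defined 100% inhibition.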

[1] = measured here: lipid fluorescence (Fed channel) AC50, cells fed with added oleic acid
[2] = measured here: cell number channel AC50, cells fed with added oleic acid

Row | Compound | cell number change [%] | AC50 [1] | AC50 [2]
1 | CC(=O)N1CCc2cc(S(=O)(=O)C(C)CC(=O)NCc3ccc(C)o3)ccc21 (stereo not drawn) | 2.75 | 0.092 µM [rising, full curve, poor fit] | 
2 | Cc1ccccc1NC(=S)N(CCc1c(C)[nH]c2ccc(F)cc12)Cc1ccncc1 | -18.4 | 29.1 µM [falling, single point] | 
3 | COc1cccc(C(C(=O)NC2CCCC2)N(C(=O)c2ccco2)C2CC2)c1OC (stereo not drawn) | 1.95 |  | 
4 | COc1ccccc1NS(=O)(=O)c1cccc(NC(=O)Nc2cccc(Cl)c2)c1 | -30.3 |  | 29.1 µM [falling, single point]
5 | Cc1ccc(OCCCC(=O)Nc2nnc(C3CCCO3)s2)c(C)c1 (stereo not drawn) | 9.55 | 0.517 µM [falling, full curve] | 
6 | CCCCCNC(=O)Cc1ccc(OC)cc1 | 25.6 |  | 
7 | COCCNC(=O)CNC(=S)N(CCCN1CCOCC1)Cc1cccs1 | -26.6 | 2.31 µM [falling, single point] | 
8 | CC(=O)c1cccc(NC(=O)NC2CC(=O)N(c3ccc4c(c3)OCCO4)C2)c1 (stereo not drawn) | 6.83 |  | 
9 | O=C(NC(c1ccccc1)c1cc(Cl)c2cccnc2c1O)c1cccnc1 (stereo not drawn) | -58 | 25.9 µM [falling, single point] | 23.1 µM [falling, single point]
10 | Cc1[nH]nc2c1C(=O)CCC2 | 1.13 | 0.13 µM [falling, full curve] | 0.461 µM [falling, full curve, poor fit]
11 | O=C1CCCN2N=C(SCC(=O)Nc3ccc([N+](=O)[O-])cc3)SC2=N1 | 44.5 | 0.206 µM [rising, single point] | 9.2 µM [rising, partial curve]
12 | CC(=O)N1CCN(c2nc3cc4c(cc3nc2NS(=O)(=O)c2ccccc2)OCCO4)CC1 | -13.8 |  | 
13 | NS(=O)(=O)c1ccc(CCNS(=O)(=O)c2ccc(Cl)nc2)cc1 | -8.74 |  | 
14 | COCC(C)NS(=O)(=O)c1ccc(NC(=O)C(Cc2ccccc2)NC(N)=O)cc1 (stereo not drawn) | 0.739 |  | 
15 | CCNc1c(NS(=O)(=O)c2ccc(OC)c(Cl)c2)c(=O)oc2ccccc12 | 1.49 | 0.82 µM [rising, single point] | 
16 | CCOc1ccccc1N(CC(=O)Nc1ccc2c(c1)OCCO2)S(C)(=O)=O | 24.7 | 0.517 µM [rising, single point] | 
17 | COc1ccc(C(=O)NC(=S)Nc2cccc3ncccc23)cc1[N+](=O)[O-] | -17.8 | 20.6 µM [falling, single point] | 
18 | COc1nc(OC)nc(N(C)CCO)n1 | -21.3 | 5.8 µM [falling, full curve] | 
19 | Oc1c(Br)cc(Br)cc1/C=N/NC(=S)N[C@H]1CC2C=CC1C2 (stereo partly drawn) | -40.2 |  | 13 µM [falling, single point]
20 | COc1cc(/C=C/C(=O)OCC(=O)N2CCN(S(=O)(=O)c3ccc(C)cc3C)CC2)cc(Cl)c1OC |  | 18.4 µM [rising, single point] | 
21 | S=C(NCC1CCCO1)N1CCc2ccccc2C1 (stereo not drawn) | 38.2 |  | 0.651 µM [rising, full curve, poor fit]

Row | Compound | cell number change [%] | AC50 [1] | AC50 [2]
22 | COc1ccc(NC(=O)CCNC(=O)Cn2ccc3ccccc3c2=O)cc1OC | 15.8 |  | 
23 | Nc1ccccc1SCC(=O)N1CCc2ccccc21 | 18.8 | 23.1 µM [rising, single point] | 
24 | CCOC(=O)C(Cc1ccccc1)NC(=O)CNC(C)=O (stereo not drawn) (Ac-Gly-[ξF]-OEt) | -29.5 |  | 0.13 µM [falling, full curve, poor fit]
25 | COc1cccc(C(=O)OCC(=O)Nc2ccccc2N2CCOCC2)c1 | 22.4 | 10.3 µM [rising, partial curve, poor fit] | 
26 | CCOc1ccc(CNC(=O)CCCOc2cc(=O)n(C)c3ccccc23)cc1 |  | 0.651 µM [rising, single point] | 
27 | O=C1COc2ccc(C(=O)COC(=O)c3ccco3)cc2N1 | -19 | 11.6 µM [falling, partial curve, poor fit] | 
28 | O=C(c1cc2nc(-c3ccc(F)cc3)cc(C(F)(F)F)n2n1)N1CCOCC1 | -5.8 |  | 
29 | CCC(=O)Nc1ccc(S(=O)(=O)N2CCc3ccccc3C2)cc1 |  | 0.146 µM [rising, full curve, poor fit] | 
30 | Cc1ccc(C(=O)c2cn[nH]c2-c2ccccc2O)cc1 | -21.9 | 32.6 µM [falling, single point] | 
31 | CN1CCN(C(=O)c2cc(S(=O)(=O)Nc3ccccc3F)c(Cl)cc2Cl)CC1 | 9.51 |  | 5.17 µM [falling, single point]
32 | Cc1ccc2c(c1)-n1c(nc3cc(F)ccc3c1=O)C(Cc1ccccc1)NC2=O (stereo not drawn) | 7.12 | 25.9 µM [rising, single point] | 
33 | O=C1c2ccccc2NC(c2ccc(O)c(O)c2)N1c1ccccc1Cl (stereo not drawn) | -7.46 | 20.6 µM [rising, single point] | 
34 | CCC(C)C(=O)Nc1ccccc1N1CCN(c2ccc(F)cc2)CC1 (stereo not drawn) | 17.9 | 0.13 µM [rising, full curve, poor fit] | 0.0517 µM [rising, full curve, poor fit]
35 | CC1CCN(S(=O)(=O)N2CCN(C(=O)c3ccc4c(c3)OCO4)CC2)CC1 | 6.84 |  | 
36 | CC(C)Cc1ccc(C#N)c(SCC(N)=O)n1 | 1.11 | 1.46 µM [rising, partial curve, poor fit] | 
37 | CCOC(=O)C1(Cc2ccc(OC)cc2)CCN(C(=O)c2cc(C)nn2C)CC1 | -3.4 | 29.1 µM [falling, single point] | 6.51 µM [falling, single point]
38 | COc1ccc(CCNC(=O)CCS(=O)(=O)c2ccc3nc(C)sc3c2)cc1OC | 5.76 | 0.13 µM [rising, full curve, poor fit] | 
39 | COc1ccc(OC)c(C(=O)c2ccc(C(=O)Nc3ccc(NC(C)=O)cc3)cc2)c1 | 85.9 |  | 16.4 µM [rising, partial curve, poor fit]
40 | COc1ccc(-c2cc(=O)oc3c(C)c(OCC(=O)NCCCn4ccnc4)ccc23)cc1 | 13.4 |  | 0.366 µM [rising, partial curve, poor fit]
41 | CCOc1ccc(CCNC(=O)C2CCCN(c3nn4c(=O)cc(C)nc4s3)C2)cc1 (stereo not drawn) | -6.15 | 29.1 µM [rising, single point] | 
42 | O=C(CCc1c[nH]c2ccccc12)N1CCN(c2ccc(O)cc2)CC1 | -16.1 |  | 

Row | Compound | cell number change [%] | AC50 [1] | AC50 [2]
43 | C=CCn1c(CCC(O)CCCCC)n[nH]c1=S (stereo not drawn) | -20.5 | 0.259 µM [rising, partial curve, poor fit] | 
44 | Cc1ccccc1OCc1nc2ccccc2c(=O)n1N |  |  | 0.00461 µM [rising, full curve, poor fit]
45 | COc1ccccc1N1CCN(C(=O)c2cc3c(s2)-c2ccccc2OC3)CC1 | 9.51 | 2.91 µM [falling, single point] | 
46 | Cc1ccc(C)c(N2CCN(CC3CC=CCC3)CC2)c1 (stereo not drawn) | -25.7 | 23.1 µM [falling, single point] | 
47 | CC(C)(C)C(=O)O/N=C(\N)c1ccc(Oc2cc(Cl)cc(Cl)c2)c([N+](=O)[O-])c1 | -8.56 |  | 
48 | CCOC(=O)Nc1ccc2c(CN3CCC(C(=O)OC)CC3)cc(=O)oc2c1 | 7.44 | 3.66 µM [rising, partial curve] | 
49 | Nc1c(Br)cc(Br)c(N2CCCC2=O)c1Br | -39.4 | 23.1 µM [falling, partial curve] | 0.0058 µM [falling, full curve, poor fit]
50 | Cc1ccc(S(=O)(=O)Nc2cc(-c3ccc(Cl)cc3)nn2C)cc1 | 7.74 |  | 
51 | Cc1ccccc1C(=O)N1CCC(C(=O)Nc2cc(C(F)(F)F)ccc2N2CCCC2)CC1 | 8.66 | 0.731 µM [falling, single point] | 
52 | O=S(=O)(NCC(c1ccco1)N1CCCCC1)c1ccccc1C(F)(F)F (stereo not drawn) | -4.79 | 14.6 µM [falling, single point] | 
53 | CC(Nc1oc(-c2ccco2)nc1C#N)c1ccccc1 (stereo not drawn) | 14.8 | 6.51 µM [rising, partial curve] | 
54 | CN(Cc1ccccc1)C(=O)C1CCCN1S(=O)(=O)c1ccc2c(c1)n(C)c(=O)c(=O)n2C (stereo not drawn) | -3.78 | 3.66 µM [falling, partial curve, poor fit] | 
55 | Cc1cc(C)cc(C(=O)N(Cc2ccco2)c2c(N)n(Cc3ccccc3)c(=O)[nH]c2=O)c1 | 19.2 | 0.00517 µM [falling, full curve, poor fit] | 
56 | Cc1nc2ccccc2c2nc(NC(=O)Cc3ccccc3)nn12 | -9.69 | 1.64 µM [rising, partial curve] | 
57 | COc1cc(NC(=O)Nc2cc(C)on2)cc(OC)c1OC |  | 0.116 µM [falling, full curve, poor fit] | 
58 | COCCNC(=O)c1ccc(Cl)c(S(=O)(=O)Nc2cccc(C)c2C)c1 | -17.4 | 0.00461 µM [falling, full curve, poor fit] | 
59 | NS(=O)(=O)c1ccc(NC(=O)Cn2nc(C(=O)O)c3ccccc3c2=O)cc1 | -20 | 6.51 µM [rising, single point] | 1.64 µM [falling, partial curve, poor fit]
60 | O=C(c1cc(Cl)ccc1[N+](=O)[O-])n1cnc2ccccc21 | -11 |  | 
61 | Cc1ccc(S(=O)(=O)Nc2cccc(-c3ccc(N4CCCCCC4)nn3)c2)c(C)c1 | -12.2 | 29.1 µM [falling, single point] | 
62 | O=C(NCCc1ccc(Cl)cc1)C1CCCN1C(=O)Nc1ccccc1 (stereo not drawn) | 1.29 | 32.6 µM [rising, single point] | 

Of the compounds above, these have a thiophene ring, fused or not:
Row | Compound | cell number change [%] | AC50 [1] | AC50 [2]
7 | COCCNC(=O)CNC(=S)N(CCCN1CCOCC1)Cc1cccs1 | -26.6 | 2.31 µM [falling, single point] | 
45 | COc1ccccc1N1CCN(C(=O)c2cc3c(s2)-c2ccccc2OC3)CC1 | 9.51 | 2.91 µM [falling, single point] | 
